# According to the supplement of paper PMC6411743:
# ± gives the standard deviation of the averaged measurements. This is one part of the list.
# Legend:
# Test in all cases: NP40-soluble protein abundance relative to vehicle (solubility fold change) (ratio); higher = more soluble protein in presence of GTP
# [1] = target: T1, C9J6V2 and related entries (UniProt Q8TA86)
# T1 sequence (whole entry): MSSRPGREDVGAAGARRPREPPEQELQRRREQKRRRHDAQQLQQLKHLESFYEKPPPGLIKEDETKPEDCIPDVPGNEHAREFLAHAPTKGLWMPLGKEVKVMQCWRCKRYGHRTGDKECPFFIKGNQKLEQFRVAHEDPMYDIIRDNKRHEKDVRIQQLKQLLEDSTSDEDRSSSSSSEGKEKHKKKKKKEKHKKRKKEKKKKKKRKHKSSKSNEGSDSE
# Procedure, shortened: (§1)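 Eight concentrations, 0.1 to 10 mM, were tested on Jurkat crude lysate for 10 min at room temperature and then 3 min at 37 °C, in three independent experiments. The lysate was solubilised with 0.8% NP40 and benzonase, ultracentrifuged, and the supernatant TMT-labelled for LC-MS/MS. Each value is the fold change against the detergent-processed vehicle in its own replicate, from vsn-normalised intensities.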
# [2] = target: T2, C9JDR0 and related entries (UniProt Q15738)
# T2 sequence (whole entry): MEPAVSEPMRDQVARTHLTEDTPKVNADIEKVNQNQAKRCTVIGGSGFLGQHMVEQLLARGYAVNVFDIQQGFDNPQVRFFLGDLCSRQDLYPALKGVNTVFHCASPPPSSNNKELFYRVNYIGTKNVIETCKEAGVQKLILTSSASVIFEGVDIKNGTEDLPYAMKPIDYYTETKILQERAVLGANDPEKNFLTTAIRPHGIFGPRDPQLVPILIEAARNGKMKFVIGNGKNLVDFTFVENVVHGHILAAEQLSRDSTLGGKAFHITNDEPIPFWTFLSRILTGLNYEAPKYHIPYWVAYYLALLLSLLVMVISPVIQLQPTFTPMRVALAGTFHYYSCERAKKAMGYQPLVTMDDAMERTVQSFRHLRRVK
# Procedure, shortened: as §1
# [3] = target: T3, C9JYA1 and related entries (UniProt O15504)
# T3 sequence (whole entry): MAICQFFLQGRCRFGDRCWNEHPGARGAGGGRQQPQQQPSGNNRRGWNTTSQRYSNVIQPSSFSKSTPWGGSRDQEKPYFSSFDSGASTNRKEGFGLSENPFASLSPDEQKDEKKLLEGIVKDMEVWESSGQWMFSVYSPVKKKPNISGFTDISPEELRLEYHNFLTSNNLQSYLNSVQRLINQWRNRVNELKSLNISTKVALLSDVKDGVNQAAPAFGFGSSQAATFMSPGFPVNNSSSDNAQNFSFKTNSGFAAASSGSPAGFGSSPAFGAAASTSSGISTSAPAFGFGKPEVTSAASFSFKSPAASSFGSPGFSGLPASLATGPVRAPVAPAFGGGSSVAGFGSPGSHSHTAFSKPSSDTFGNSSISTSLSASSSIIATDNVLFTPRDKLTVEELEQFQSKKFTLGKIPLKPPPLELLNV
# Procedure, shortened: as §1
# [4] = target: T4, D6RDX7 and related entries (UniProt Q6PCB8)
# T4 sequence (whole entry): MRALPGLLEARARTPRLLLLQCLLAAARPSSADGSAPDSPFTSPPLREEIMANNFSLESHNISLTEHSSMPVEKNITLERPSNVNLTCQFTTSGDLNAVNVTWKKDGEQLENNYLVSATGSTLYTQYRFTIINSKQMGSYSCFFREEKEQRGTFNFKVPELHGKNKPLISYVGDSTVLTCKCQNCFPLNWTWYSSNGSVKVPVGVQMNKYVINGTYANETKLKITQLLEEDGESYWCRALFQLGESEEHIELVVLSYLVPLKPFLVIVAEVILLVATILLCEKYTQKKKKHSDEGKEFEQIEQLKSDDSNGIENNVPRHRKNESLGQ
# Procedure, shortened: as §1
# [5] = target: T5, E3W994 and related entries (UniProt O75122)
# T5 sequence (whole entry): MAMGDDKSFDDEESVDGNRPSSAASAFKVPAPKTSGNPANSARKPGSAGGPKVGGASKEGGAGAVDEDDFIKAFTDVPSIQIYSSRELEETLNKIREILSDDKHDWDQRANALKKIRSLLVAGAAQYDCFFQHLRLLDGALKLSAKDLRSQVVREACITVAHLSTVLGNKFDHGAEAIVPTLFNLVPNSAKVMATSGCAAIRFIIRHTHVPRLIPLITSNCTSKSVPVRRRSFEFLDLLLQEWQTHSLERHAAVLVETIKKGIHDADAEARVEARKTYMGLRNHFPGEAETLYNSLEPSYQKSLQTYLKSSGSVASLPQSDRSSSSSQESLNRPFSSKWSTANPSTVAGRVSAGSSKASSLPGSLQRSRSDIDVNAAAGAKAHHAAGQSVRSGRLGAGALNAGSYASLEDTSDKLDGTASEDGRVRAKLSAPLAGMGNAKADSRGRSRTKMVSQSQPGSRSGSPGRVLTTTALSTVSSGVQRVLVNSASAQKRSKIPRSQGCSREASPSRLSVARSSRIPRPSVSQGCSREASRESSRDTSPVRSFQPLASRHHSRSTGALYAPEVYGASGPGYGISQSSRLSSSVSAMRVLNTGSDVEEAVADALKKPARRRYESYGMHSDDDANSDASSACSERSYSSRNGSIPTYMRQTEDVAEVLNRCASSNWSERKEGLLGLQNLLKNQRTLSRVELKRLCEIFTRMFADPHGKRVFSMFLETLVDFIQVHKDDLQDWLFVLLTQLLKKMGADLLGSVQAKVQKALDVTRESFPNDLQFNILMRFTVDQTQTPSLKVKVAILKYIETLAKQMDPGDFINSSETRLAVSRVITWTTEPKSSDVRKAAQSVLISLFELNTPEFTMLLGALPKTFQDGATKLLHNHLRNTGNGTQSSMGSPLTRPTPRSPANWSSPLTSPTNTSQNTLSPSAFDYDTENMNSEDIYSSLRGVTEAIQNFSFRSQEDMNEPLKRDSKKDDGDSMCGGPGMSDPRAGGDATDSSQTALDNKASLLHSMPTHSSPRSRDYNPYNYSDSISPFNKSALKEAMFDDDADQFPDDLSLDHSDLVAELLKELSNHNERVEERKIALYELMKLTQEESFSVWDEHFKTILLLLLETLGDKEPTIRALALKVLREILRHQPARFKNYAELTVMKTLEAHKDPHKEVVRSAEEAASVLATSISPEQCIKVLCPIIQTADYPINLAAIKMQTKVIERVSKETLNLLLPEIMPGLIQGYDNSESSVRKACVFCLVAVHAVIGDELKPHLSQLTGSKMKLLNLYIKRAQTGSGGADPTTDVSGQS
# Procedure, shortened: as §1
# [6] = target: T6, E7EMK3 and related entries (UniProt Q14254)
# T6 sequence (whole entry): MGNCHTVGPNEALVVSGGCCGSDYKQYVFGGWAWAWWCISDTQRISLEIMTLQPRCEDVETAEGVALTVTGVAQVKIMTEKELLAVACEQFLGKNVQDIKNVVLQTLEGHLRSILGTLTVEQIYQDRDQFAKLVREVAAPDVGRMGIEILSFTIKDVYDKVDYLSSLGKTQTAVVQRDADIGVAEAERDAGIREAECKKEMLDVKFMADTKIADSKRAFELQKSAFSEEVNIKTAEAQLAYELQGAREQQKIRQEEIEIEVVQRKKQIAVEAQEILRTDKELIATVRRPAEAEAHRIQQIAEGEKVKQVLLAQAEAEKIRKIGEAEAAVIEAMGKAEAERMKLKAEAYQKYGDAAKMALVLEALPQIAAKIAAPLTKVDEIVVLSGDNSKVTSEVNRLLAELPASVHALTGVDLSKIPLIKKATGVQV
# Procedure, shortened: as §1
# [7] = target: T7, E7EMN6 and related entries (UniProt P41236)
# T7 sequence (whole entry): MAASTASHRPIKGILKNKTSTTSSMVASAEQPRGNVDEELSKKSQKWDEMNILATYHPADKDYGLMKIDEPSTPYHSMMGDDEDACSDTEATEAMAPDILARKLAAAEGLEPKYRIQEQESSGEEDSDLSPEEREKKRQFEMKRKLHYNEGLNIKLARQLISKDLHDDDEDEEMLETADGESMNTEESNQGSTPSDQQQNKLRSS
# Procedure, shortened: as §1
smiles,measurement,setting,value
Nc1nc2c(ncn2[C@@H]2O[C@H](COP(=O)(O)OP(=O)(O)OP(=O)(O)O)[C@@H](O)[C@H]2O)c(=O)[nH]1 [guanosine triphosphate],NP40-soluble protein abundance,[1]; concentration: 0.1mM,0.998 ± 0.12
same,NP40-soluble protein abundance,[1]; concentration: 0.5mM,0.991 ± 0.067
same,NP40-soluble protein abundance,[1]; concentration: 1mM,1.07 ± 0.015
same,NP40-soluble protein abundance,[1]; concentration: 2mM,1.02 ± 0.057
same,NP40-soluble protein abundance,[1]; concentration: 4mM,0.9939 ± 0.0064
same,NP40-soluble protein abundance,[1]; concentration: 6mM,1.04 ± 0.12
same,NP40-soluble protein abundance,[1]; concentration: 8mM,1.04 ± 0.052
same,NP40-soluble protein abundance,[1]; concentration: 10mM,1.2 ± 0.16
same,NP40-soluble protein abundance,[2]; concentration: 0.1mM,0.987 ± 0.025
same,NP40-soluble protein abundance,[2]; concentration: 0.5mM,0.976 ± 0.035
same,NP40-soluble protein abundance,[2]; concentration: 1mM,0.882 ± 0.028
same,NP40-soluble protein abundance,[2]; concentration: 2mM,0.865 ± 0.051
same,NP40-soluble protein abundance,[2]; concentration: 4mM,0.845 ± 0.051
same,NP40-soluble protein abundance,[2]; concentration: 6mM,0.85 ± 0.049
same,NP40-soluble protein abundance,[2]; concentration: 8mM,0.806 ± 0.048
same,NP40-soluble protein abundance,[2]; concentration: 10mM,0.807 ± 0.087
same,NP40-soluble protein abundance,[3]; concentration: 0.1mM,0.963 ± 0.11
same,NP40-soluble protein abundance,[3]; concentration: 0.5mM,1.04 ± 0.026
same,NP40-soluble protein abundance,[3]; concentration: 1mM,0.993 ± 0.1
same,NP40-soluble protein abundance,[3]; concentration: 2mM,1.077 ± 0.0087
same,NP40-soluble protein abundance,[3]; concentration: 4mM,1.04 ± 0.03
same,NP40-soluble protein abundance,[3]; concentration: 6mM,1.17 ± 0.14
same,NP40-soluble protein abundance,[3]; concentration: 8mM,1.21 ± 0.15
same,NP40-soluble protein abundance,[3]; concentration: 10mM,1.41 ± 0.12
same,NP40-soluble protein abundance,[4]; concentration: 0.1mM,0.903 ± 0.059
same,NP40-soluble protein abundance,[4]; concentration: 0.5mM,0.899 ± 0.061
same,NP40-soluble protein abundance,[4]; concentration: 1mM,0.975 ± 0.11
same,NP40-soluble protein abundance,[4]; concentration: 2mM,0.913 ± 0.072
same,NP40-soluble protein abundance,[4]; concentration: 4mM,0.901 ± 0.12
same,NP40-soluble protein abundance,[4]; concentration: 6mM,0.927 ± 0.14
same,NP40-soluble protein abundance,[4]; concentration: 8mM,0.91 ± 0.098
same,NP40-soluble protein abundance,[4]; concentration: 10mM,0.954 ± 0.065
same,NP40-soluble protein abundance,[5]; concentration: 0.1mM,1 ± 0.041
same,NP40-soluble protein abundance,[5]; concentration: 0.5mM,1.04 ± 0.053
same,NP40-soluble protein abundance,[5]; concentration: 1mM,1.1 ± 0.073
same,NP40-soluble protein abundance,[5]; concentration: 2mM,1.13 ± 0.12
same,NP40-soluble protein abundance,[5]; concentration: 4mM,1.16 ± 0.13
same,NP40-soluble protein abundance,[5]; concentration: 6mM,1.17 ± 0.14
same,NP40-soluble protein abundance,[5]; concentration: 8mM,1.19 ± 0.18
same,NP40-soluble protein abundance,[5]; concentration: 10mM,1.21 ± 0.21
same,NP40-soluble protein abundance,[6]; concentration: 0.1mM,1.04 ± 0.066
same,NP40-soluble protein abundance,[6]; concentration: 0.5mM,1.14 ± 0.1
same,NP40-soluble protein abundance,[6]; concentration: 1mM,1.09 ± 0.075
same,NP40-soluble protein abundance,[6]; concentration: 2mM,1.14 ± 0.11
same,NP40-soluble protein abundance,[6]; concentration: 4mM,1.25 ± 0.099
same,NP40-soluble protein abundance,[6]; concentration: 6mM,1.22 ± 0.18
same,NP40-soluble protein abundance,[6]; concentration: 8mM,1.25 ± 0.19
same,NP40-soluble protein abundance,[6]; concentration: 10mM,1.2 ± 0.16
same,NP40-soluble protein abundance,[7]; concentration: 0.1mM,1.02 ± 0.046
same,NP40-soluble protein abundance,[7]; concentration: 0.5mM,1.02 ± 0.02
same,NP40-soluble protein abundance,[7]; concentration: 1mM,1.09 ± 0.096
same,NP40-soluble protein abundance,[7]; concentration: 2mM,1.07 ± 0.024
same,NP40-soluble protein abundance,[7]; concentration: 4mM,0.9697 ± 0.0043
same,NP40-soluble protein abundance,[7]; concentration: 6mM,1.02 ± 0.043
same,NP40-soluble protein abundance,[7]; concentration: 8mM,1.042 ± 0.0026
same,NP40-soluble protein abundance,[7]; concentration: 10mM,1.1 ± 0.1

# Copied from the results shown (3 entries):
smiles,measurement,setting,value
Nc1nc2c(ncn2[C@@H]2O[C@H](COP(=O)(O)OP(=O)(O)OP(=O)(O)O)[C@@H](O)[C@H]2O)c(=O)[nH]1 [guanosine triphosphate],NP40-soluble protein abundance,[4]; concentration: 8mM,0.91 ± 0.098
same,NP40-soluble protein abundance,[4]; concentration: 10mM,0.954 ± 0.065
same,NP40-soluble protein abundance,[5]; concentration: 0.1mM,1 ± 0.041
